The values below come from the supplement of paper PMC8866396.

± gives the standard deviation of the averaged measurements. The list shows a part of the results. This data set is noisy: repeats of one test often differ as much as different tests do.

The test system of the assay is IL-6-GFP PC-9GR. Kind of assay: IL-6-GFP fluorescence relative to DMSO control (fraction of control); higher = more IL-6-GFP expression. The settings on record: compound concentration: 10 uM; treatment time: 48 h. The method, then:
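IL-6-GFP-overexpressing PC-9 and PC-9GR EGFR-mutant lung cancer cells (3000 cells/well, 96-well) were treated for 48 h with each compound of the Selleck L2000 library at 10 uM. IL-6-GFP fluorescence was read on a high-content screening system, and viability by CCK-8 absorbance on a parallel plate set. Each value was normalised as compound well / DMSO control well; two independent replicates.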
`Cn1cnc2c(F)c(Nc3ccc(Br)cc3F)c(C(=O)NOCCO)cc21`: the IL-6-GFP fluorescence was found to be 0.863 ± 0.023.

As to `COc1cc(-c2coc3cc4c(c(OC)c3c2=O)OCO4)cc(OC)c1OC` [Irisflorentin], the IL-6-GFP fluorescence worked out at 0.941 ± 0.092.

Turning to `CC(C(=O)O)c1ccc(C(=O)c2cccs2)cc1` (stereo not drawn) [Suprofen], the IL-6-GFP fluorescence came out at 0.568 ± 0.23.

In the case of `COc1cc2nccc(Oc3ccc(NC(=O)NC4CC4)c(Cl)c3)c2cc1C(N)=O` [Lenvatinib (E7080)], the IL-6-GFP fluorescence was determined as 0.909 ± 0.039.

`Cc1cnc(NC(=O)C2=C(O)c3ccccc3S(=O)(=O)N2C)s1` [Meloxicam] returned an IL-6-GFP fluorescence of 0.661 ± 0.09.

Consider `CC1=C(/C=C/C(C)=C/C=C/C(C)=C/C(=O)Nc2ccc(O)cc2)C(C)(C)CCC1` [Fenretinide], for which the IL-6-GFP fluorescence turned out to be 0.548 ± 0.14.

`C=CCC1/C=C(\C)CC(C)CC(OC)C2OC(O)(C(=O)C(=O)N3CCCCC3C(=O)OC(/C(C)=C/C3CCC(O)C(OC)C3)C(C)C(O)CC1=O)C(C)CC2OC` (stereo not drawn) [Tacrolimus (FK506)] registered an IL-6-GFP fluorescence of 0.727 ± 0.12.

Compound `CCCCCCCCCCCC1=C(O)C(=O)C=C(O)C1=O` [Embelin] registered an IL-6-GFP fluorescence of 0.677 ± 0.045.

Compound `COc1ccc2cc1Oc1ccc(cc1)CC1c3c(cc4c(c3Oc3cc5c(cc3OC)CCN(C)C5C2)OCO4)CCN1C` (stereo not drawn) [Cepharanthine] showed an IL-6-GFP fluorescence of 0.656 ± 0.21.

As for `Cc1c(O)c(C)c2c(c1O)C(=O)CC(c1ccc(O)cc1)O2` (stereo not drawn) [Farrerol], the IL-6-GFP fluorescence turned out to be 1.01 ± 0.47.

In the case of `COc1cc(C2c3cc4c(cc3C(OC3OC5COC(c6cccs6)OC5C(O)C3O)C3COC(=O)C23)OCO4)cc(OC)c1O` (stereo not drawn) [Teniposide], the IL-6-GFP fluorescence is 1.03 ± 0.2.

Regarding `CC1CC2C3CCC4=CC(=O)C=CC4(C)C3(F)C(O)CC2(C)C1(O)C(=O)CO` (stereo not drawn) [Betamethasone], the IL-6-GFP fluorescence came out at 0.82 ± 0.24.

`COc1cc(C2c3cc4c(cc3C(OC3OC5COC(C)OC5C(O)C3O)C3COC(=O)C23)OCO4)cc(OC)c1O` (stereo not drawn) [Etoposide] returned an IL-6-GFP fluorescence of 1 ± 0.057.

The compound `C=C1C(=O)OC2C1CCC(=C)C1CCC(=C)C12` (stereo not drawn) [Dehydrocostus Lactone] yielded an IL-6-GFP fluorescence of 0.925 ± 0.1.

Take `CS(=O)(=O)c1ccc(C(=O)Nc2ccc(Cl)c(-c3ccccn3)c2)c(Cl)c1` [Vismodegib (GDC-0449)]: the IL-6-GFP fluorescence came out at 1.07 ± 0.013.

`COc1cc2nccc(Oc3ccc(NC(=O)C4(C(=O)Nc5ccc(F)cc5)CC4)cc3)c2cc1OC.O=C(O)CC(O)C(=O)O` [Cabozantinib malate (XL184)]: the IL-6-GFP fluorescence was 0.65 ± 0.042.

For `COc1ccnc(CS(=O)c2nc3ccc(-n4cccc4)cc3[nH]2)c1C` (stereo not drawn) [Ilaprazole], the IL-6-GFP fluorescence worked out at 0.99 ± 0.32.

Compound `O=c1c(-c2ccc(O)cc2)coc2cc(O)cc(O)c12` [Genistein] displayed an IL-6-GFP fluorescence of 1.01 ± 0.11.
